Reference: PubChem BioAssay AID686937 (Drosophila RNAi Screening Center, 2013)
In all, the deposit lists about 23,000 reagents; this is a random part of those that have a named target and a result. 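Reduced-secretion tags in replicate 1 do not always agree with the z-scores; no criterion for assigning the tags was given.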 A plus sign joins genes that one reagent is predicted to hit. The record does not give: the amount of reagent.

Screen: 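Knock-downs that reduce output of a secreted reporter enzyme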 (primary screen)
Cell system: Drosophila S2 cells expressing secreted horseradish peroxidase
Knock-down reagent: long dsRNA against Drosophila genes
Time to read-out: about 5.5 days (5 days dsRNA, then 12 h reporter induction)
Challenge: reporter expression induced after 5 days of dsRNA, read 12 h later; inducer not stated
Detection: 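After 5 days of dsRNA and 12 h of reporter induction, medium peroxidase read by chemiluminescence and scored as per-plate z-score; higher values mean more reporter released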
Scale: z-score: higher = more reporter secreted into medium

| predicted target | dsRNA | z-score, replicate 1 | z-score, replicate 2 | z-score, replicate 3 | z-score, replicate 4 | phenotype, replicate 1 |
| --- | --- | --- | --- | --- | --- | --- |
| ymp | DRSC13720 | 0.28 | 0.64 | – | – | – |
| ymp | DRSC14482 | 0.2 | 0.29 | – | – | – |
| CG17404 | DRSC15234 | 0.42 | 0.55 | 0.01 | -0.03 | – |
| Jarid2 | DRSC10372 | 0.39 | 0.36 | – | – | – |
| wcd | DRSC07051 | 0.09 | 0.03 | – | – | – |
| CG8136 | DRSC16385 | 0.27 | 0.31 | – | – | – |
| CG10863 | DRSC08145 | 0.11 | 0.18 | – | – | – |
| azot | DRSC06051 | 0.19 | 0.29 | – | – | – |
| Dhdds | DRSC17756 | -1.17 | -2.08 | – | – | – |
| Hat1 | DRSC12298 | 0.29 | 0.57 | – | – | – |
| Ald2 | DRSC14730 | -2.79 | -0.98 | – | – | reduced secretion |
| Ald2 | DRSC15799 | -0.97 | -0.22 | – | – | – |
| CG17198 + CG17197 | DRSC15190 | 0.57 | 0.43 | – | – | – |
| CG17198 + CG17197 | DRSC15191 | 0.54 | 0.54 | – | – | – |
| CG7907 | DRSC16339 | 0.22 | 0.32 | – | – | – |
| CG17571 | DRSC01768 | 0.32 | 0.41 | – | – | – |
| CG17571 | DRSC03755 | 0.04 | 0.35 | – | – | – |
| BG642163 | DRSC00342 | 0.26 | 0.28 | – | – | – |
| BG642163 | DRSC00343 | 0.11 | 0.31 | – | – | – |
| CG5946 | DRSC10560 | 0.17 | 0.4 | – | – | – |
| CG34241 | DRSC09157 | 0.51 | 0.47 | – | – | – |
| CG34433 | DRSC15077 | 0.17 | 0.2 | – | – | – |
| Cdk9 | DRSC04601 | -5.42 | -6.98 | – | – | reduced secretion |
| Polr3D | DRSC10485 | -0.28 | -1.37 | – | – | – |
| mus101 | DRSC19388 | 0.21 | 0.37 | – | – | – |
| CG31638 | DRSC02269 | 0.35 | 0.29 | – | – | – |
| CG31638 | DRSC03259 | 0.55 | 0.48 | – | – | – |
| CG32640 + CG32641 | DRSC22885 | -0.11 | -0.11 | – | – | – |
| nonC | DRSC18366 | 0.63 | 0.47 | – | – | – |
| nonC | DRSC18367 | 0.19 | 0.68 | – | – | – |
| Wnt10 | DRSC00990 | -0.2 | 0.09 | – | – | – |
| Wnt10 | DRSC02797 | 0.33 | 0.41 | – | – | – |
| CG11069 | DRSC14289 | -0.05 | -0.02 | – | – | – |
| CG43153 | DRSC01189 | 0.54 | -0.27 | – | – | – |
| CG6118 | DRSC15968 | -1.76 | -0.96 | – | – | reduced secretion |
| CG3165 | DRSC00573 | 0.08 | 0.43 | – | – | – |
| CG31804 | DRSC22728 | -0.01 | -0.06 | – | – | – |
| Fhos | DRSC08943 | 0.11 | -0.03 | – | – | – |
| Fhos | DRSC10545 | 0.18 | 0.18 | – | – | – |
| Fhos | DRSC10546 | -0.04 | 0.16 | – | – | – |
| Fhos | DRSC10547 | 0.42 | 0.3 | – | – | – |
| CG4949 | DRSC19926 | 0.32 | 0.6 | – | – | – |
| plx | DRSC12260 | 0.23 | 0.07 | – | – | – |
| plx | DRSC12385 | -1.24 | 0.39 | 0.44 | -0.63 | – |
| plx | DRSC22683 | -1.33 | -0.87 | – | – | reduced secretion |
| CAH15 | DRSC04534 | 0.36 | 0.26 | – | – | – |
| Sptr | DRSC18719 | 0.35 | 0.43 | – | – | – |
| PpN58A | DRSC04642 | 0.1 | 0.18 | – | – | – |
| CG13793 | DRSC02297 | 0.46 | 0.08 | – | – | – |
| CG13325 | DRSC06362 | 0.28 | 0.17 | – | – | – |
| CG34112 | DRSC12235 | 0.22 | -0.19 | – | – | – |
| Prp40 | DRSC00612 | 0.58 | 0.51 | – | – | – |
| Rab27 | DRSC18567 | 0.25 | 0.23 | – | – | – |
| Fpgs2 | DRSC00600 | 0.17 | 0.33 | – | – | – |
| CG32452 | DRSC11581 | 0.58 | 0.27 | – | – | – |
| CG32452 | DRSC22250 | -0.03 | 0.1 | – | – | – |
| mAcon2 | DRSC15629 | 0.45 | 0.56 | – | – | – |
| Ubc7 | DRSC20299 | -0.23 | 0.21 | – | – | – |
| CG30373 | DRSC05081 | -0.06 | – | – | – | – |
| CG7368 | DRSC10826 | 0.02 | 0.58 | 0.18 | 0.14 | – |
| CG7368 | DRSC22821 | -0.88 | -0.14 | – | – | – |
| Tsp42Eh | DRSC06190 | 0.45 | 0.33 | – | – | – |
| ptc | DRSC05117 | -0.01 | – | – | – | – |
| ptc | DRSC07669 | 0.4 | 0.3 | – | – | – |
| Start1 | DRSC04384 | 0 | 0.25 | – | – | – |
| CG11951 | DRSC14442 | 0.29 | 0.33 | – | – | – |
| CSN4 | DRSC07350 | -0.28 | -0.91 | – | – | – |
| CG13566 | DRSC04203 | 0.2 | -0.16 | – | – | – |
| CG10943 | DRSC09805 | 0.14 | 0.41 | – | – | – |
| CG13185 | DRSC06310 | 0.3 | 0.26 | – | – | – |
| Cpr62Ba | DRSC08403 | 0.17 | 0.16 | – | – | – |
| CG42272 | DRSC08766 | -0.16 | 0.36 | – | – | – |
| CG42272 | DRSC22502 | 0.56 | 0.95 | – | – | – |
| CG18371 | DRSC06733 | 0.24 | 0.42 | – | – | – |
| Ir7d | DRSC18010 | 0.1 | -0.11 | – | – | – |
| CG1602 | DRSC06601 | 0.54 | 0.4 | – | – | – |
| Tsp42Eb + CG30160 | DRSC04961 | 0.17 | – | – | – | – |
| Tsp42Eb + CG30160 | DRSC06791 | 0.2 | 0.34 | – | – | – |
| CG42374 + Mettl5 | DRSC11085 | 0.52 | 0.57 | – | – | – |
| CG14085 | DRSC10089 | 0.27 | 0.43 | – | – | – |
| Taf11 | DRSC03448 | -0.66 | -0.47 | – | – | – |
| l(3)07882 | DRSC15882 | 0.26 | 0.2 | – | – | – |
| Pdk1 | DRSC08682 | -1 | -0.75 | – | – | – |
| CG6574 | DRSC16070 | 0.11 | 0.33 | – | – | – |
| CG15387 | DRSC00401 | -0.07 | 0.33 | – | – | – |
| PAN3 | DRSC08190 | 0.54 | 0.23 | – | – | – |
| GluRIID | DRSC16723 | 0.25 | 0.51 | – | – | – |
| Pli | DRSC16792 | 0.07 | 0.26 | – | – | – |
| CG15282 | DRSC22620 | 1.08 | -0.02 | – | – | – |
| CG4968 | DRSC02794 | 0.45 | 0.26 | 0.34 | 0.26 | – |
| Dhod | DRSC16647 | 0.34 | 0.28 | – | – | – |
| CG15020 | DRSC08474 | 0.13 | 0.25 | – | – | – |
| Eig71Eg | DRSC11154 | 0.38 | 0.26 | – | – | – |
| CG18418 | DRSC08535 | 0.34 | 0.41 | – | – | – |
| CG13063 | DRSC09946 | 0.29 | 0.19 | – | – | – |
| CG32087 | DRSC10806 | 0.11 | 0.24 | – | – | – |
| hog | DRSC19057 | -0.17 | 0.06 | – | – | – |
| CG33483 | DRSC14019 | 0.52 | 0.42 | – | – | – |
| spag4 | DRSC02973 | 0.45 | 0.3 | – | – | – |
| Lst | DRSC07146 | 0.15 | 0.08 | – | – | – |
| Ir64a | DRSC09759 | 0.5 | 0.41 | – | – | – |
| Ir64a | DRSC09760 | 0.35 | 0.31 | – | – | – |
| Acp24A4 | DRSC22352 | -0.75 | -0.07 | – | – | – |
| RpS30 | DRSC15119 | -2.29 | -3.25 | – | – | reduced secretion |

Part of the list above in another layout.
mAcon2 [DRSC15629]
- z-score, replicate 1: 0.45
- z-score, replicate 2: 0.56

Ubc7 [DRSC20299]
- z-score, replicate 1: -0.23
- z-score, replicate 2: 0.21

CG30373 [DRSC05081]
- z-score, replicate 1: -0.06

CG7368 [DRSC10826]
- z-score, replicate 1: 0.02
- z-score, replicate 2: 0.58
- z-score, replicate 3: 0.18
- z-score, replicate 4: 0.14

CG7368 [DRSC22821]
- z-score, replicate 1: -0.88
- z-score, replicate 2: -0.14

Tsp42Eh [DRSC06190]
- z-score, replicate 1: 0.45
- z-score, replicate 2: 0.33

ptc [DRSC05117]
- z-score, replicate 1: -0.01

ptc [DRSC07669]
- z-score, replicate 1: 0.4
- z-score, replicate 2: 0.3

Start1 [DRSC04384]
- z-score, replicate 1: 0
- z-score, replicate 2: 0.25

CG11951 [DRSC14442]
- z-score, replicate 1: 0.29
- z-score, replicate 2: 0.33

CSN4 [DRSC07350]
- z-score, replicate 1: -0.28
- z-score, replicate 2: -0.91

CG13566 [DRSC04203]
- z-score, replicate 1: 0.2
- z-score, replicate 2: -0.16
